From PubChem BioAssay AID2685 (National Center for Advancing Translational Sciences (NCATS), 2010) come the findings set out here.

A short description of the experiment: qHTS Assay for Lipid Storage Modulators in Drosophila S3 Cells.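 As to cell number change: cells counted by Cell Tracker Red CMTPX staining in the red channel.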 To be noted: BODIPY lipid droplet fluorescence, 18-24 h; for cell number change: measured here: cell count max response, cells fed with added oleic acid. In a few lines: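 Laser-scanning cytometry quantifies lipid droplet accumulation (500–530 nm total intensity; droplet/cell object ratio) in oleic acid-fed (400 uM added) Drosophila S3 cells treated with a concentration series. 20 uM Triacsin C defined 100% inhibition.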

Setting [1] is: measured here: lipid fluorescence (Fed channel) AC50, cells fed with added oleic acid.
Setting [2] is: measured here: cell number channel AC50, cells fed with added oleic acid.

Some of the results follow. These are further read-outs of the screen, such as a control signal, another cell line or another target. No call is given for them. Compounds called inactive in the main read-out are mostly missing here. Potencies come from curve fits of mixed quality, noted in brackets.

As usually defined, the AC50 is the concentration at which the activity in the assay is half-maximal.

With `CCOc1cc(/C=C(\C#N)C(=O)Nc2ccccc2C(=O)O)ccc1OC(=O)c1ccc(C)cc1`, the cell number change amounted to 9.26%. The AC50 under setting [1] is 20.6 µM [rising, partial curve]. In the case of `COc1ccc(/C=N/NC(=O)CSCc2ccc([N+](=O)[O-])cc2)cc1OC`, under setting [1], the AC50 is 0.517 µM [rising, partial curve, poor fit]. As for `CC1(OC(=O)C2CCCC2)C(=O)C=C2C=C(c3ccsc3)N(CCc3c[nH]c4ccccc34)C=C2C1=O` (centres undefined), the cell number change is -3.3%. Also, the AC50 under setting [1] is 0.092 µM [falling, full curve, poor fit].

As to `COc1cc(NC(=O)COC(=O)c2nc3nc(C)cc(C)n3n2)cc(OC)c1`, the cell number change is -27.7%. Under setting [1], the AC50 is 29.1 µM [falling, single point]. Consider `COc1ccc(CC(=O)Nc2ccc(-c3cn4ccccc4n3)cc2)cc1OC`, for which the cell number change was -35%. The AC50 under setting [2] was 13 µM [falling, partial curve, poor fit]. Besides, the AC50 under setting [1] is 25.9 µM [falling, single point]. As for `CC1(C)CC(=O)C=C(C(=O)N2CCCC(C(=O)c3cccc(C(F)(F)F)c3)C2)O1` (centres undefined), the AC50 under setting [1] was 6.51 µM [rising, single point]. Regarding `O=C(CCC(=O)OCCCC(F)(F)C(F)(F)F)Nc1ccc(Cl)cc1Cl`, the cell number change was -71.8%. Besides, the AC50 under setting [2] was 29.1 µM [falling, single point]. In the case of `COc1ccc(C(=O)NCCS(=O)(=O)NCc2ccccc2)cc1`, the AC50 under setting [2] is 6.51 µM [rising, partial curve, poor fit].

Take `CC(OC(=O)c1ccc2ncsc2c1)C(=O)Nc1cccc(Cl)c1` (centres undefined): the cell number change stood at 23.1%. The AC50 under setting [1] was 16.4 µM [rising, partial curve, poor fit].

Regarding `C=CCNc1cc(N2CCCC2)ccc1[N+](=O)[O-]`, the cell number change is 24.3%. Also, the AC50 under setting [2] is 0.058 µM [rising, full curve, poor fit].

Take `CCN(CC(=O)Nc1cc(Cl)ccc1C)C(=O)CCc1nc2ccccc2c(=O)[nH]1`: the cell number change was -7.02%. Under setting [1], the AC50 was 6.51 µM [rising, partial curve, poor fit]. For `COc1ncnc2c1N=C1CC(C)(C)CC(N)=C1S2`, the cell number change is -127%. The AC50 under setting [2] is 20.6 µM [falling, partial curve]. For the compound `COCCNC(=O)c1onc(CSc2cc(C)ccc2C)c1C(=O)O`, the cell number change is 156%. For the same compound, under setting [2], the AC50 was 16.4 µM [rising, partial curve]. Further, the AC50 under setting [1] is 18.4 µM [rising, partial curve].

With `O=c1[nH][nH]cc1C=NCc1cccnc1`, the cell number change is 3.64%. Further, under setting [1], the AC50 was 1.84 µM [rising, partial curve]. In the case of `Cn1ccc(C(=O)OCC(=O)Nc2ccccc2Cl)n1`, the cell number change stood at 23%. Besides, the AC50 under setting [1] was 14.6 µM [rising, single point].

Regarding `CCOc1ccc(/C=N/NC(=O)C(O)c2ccccc2)c(O)c1` (centres undefined), the cell number change was -12.9%.

On to `COC(=O)c1c(NC(=O)CN2CCN(c3ccccc3)CC2)c2c(C)cccc2n1C`, for which the cell number change is 13.1%. Same read-out and setting: to `CC(C)(C)OC(=O)N1CCC[C@H]1C(=O)Nc1ccc(S(=O)(=O)C(F)F)cc1` belongs -1.39%. As to `Cc1cc(C)nc(/N=C(\N)Nc2ccc(SC(F)F)cc2)n1`, the cell number change worked out at 11%. Also, under setting [1], the AC50 is 14.6 µM [falling, single point]. As for `COc1ccc(C(=O)N2CCN(c3ncccn3)CC2)cc1S(=O)(=O)N1CCOCC1`, the cell number change was -25%. Also, the AC50 under setting [2] is 0.00461 µM [falling, full curve, poor fit]. Under setting [1], the AC50 is 0.00461 µM [falling, full curve, poor fit]. As to `CC(=O)c1ccc(N2CCN(C(=O)c3ccc(Br)cc3)CC2)c(F)c1`, the AC50 is, setting by setting: under setting [2], 6.51 µM [falling, single point]; under setting [1], 32.6 µM [rising, partial curve, poor fit].

Regarding `O=C(NCc1ccc(F)cc1)C1CCCN(C(=O)Nc2ccc(F)cc2)C1` (centres undefined), the cell number change worked out at 6.72%. Also, the AC50 under setting [1] was 6.51 µM [rising, single point]. As to `Cc1cccc(N2CCN(C(=O)CCCn3c(=S)[nH]c4cc5c(cc4c3=O)OCO5)CC2)c1C`, the cell number change was -35.2%. Also, under setting [2], the AC50 was 32.6 µM [falling, single point]. Further, under setting [1], the AC50 was 16.4 µM [falling, single point].

Turning to `Cc1nnc(SC2CC(=O)N(c3ccccc3)C2=O)s1` (centres undefined), the cell number change is -79.3%. Moreover, the AC50 under setting [2] is 29.1 µM [falling, single point]. For the same compound, under setting [1], the AC50 is 29.1 µM [falling, single point]. For `Cc1cc(C)c2[nH]c(O)c(N=NC(=O)c3cc4c(s3)CCCC4)c2c1`, the cell number change worked out at 2.67%. Under setting [1], the AC50 is 29.1 µM [rising, single point]. In the case of `COc1ccc2cc3cc(C(=O)NCc4ccco4)oc3nc2c1`, the AC50 is 0.366 µM [rising, full curve] under setting [2] and 0.58 µM [rising, single point] under setting [1]. On to `CC(C)(C)NC(=O)c1cc(-c2ccc3c(c2)OCO3)nc2ccccc12`, for which the cell number change amounted to 17.3%. For the same compound, the AC50 under setting [1] was 2.91 µM [rising, single point]. `CCc1ccc(N(CC(=O)NCc2ccc3c(c2)OCO3)C(=O)c2csnn2)cc1`: the cell number change is 19.4%. Also, the AC50 under setting [1] was 29.1 µM [rising, single point]. For the compound `C/C(CC(=O)Nc1ccc(Cl)cc1)=N\NC(=O)C(=O)N1CCCCC1`, the cell number change worked out at 0.716%. With `CCc1ccc(NC(=S)Nn2cnnc2)cc1`, the cell number change is -7.71%. Take `CCCCOC(C)n1cc(F)c(=O)[nH]c1=O` (centres undefined): the cell number change came out at 9.52%. In addition, the AC50 under setting [1] was 4.61 µM [falling, full curve, poor fit].

Regarding `COc1ccc(C)cc1S(=O)(=O)NCCc1ccccc1`, the AC50 under setting [1] was 5.8 µM [falling, full curve].

For `COc1cc(C(=O)NCCc2cn3ccc(C)cc3n2)cc(OC)c1OC`, the cell number change is 130%. Also, under setting [2], the AC50 is 11.6 µM [rising, partial curve]. For the same compound, the AC50 under setting [1] is 11.6 µM [rising, partial curve].

With `O=S(=O)(Nc1ccc(-n2cccc2)cc1)c1ccc(Cl)cc1Cl`, the cell number change was -66.6%. In addition, the AC50 under setting [2] is 13 µM [falling, partial curve]. In addition, under setting [1], the AC50 was 18.4 µM [falling, partial curve]. For the compound `COc1ccc(-c2cc(C(=O)N3CCCCC3)c3ccccc3n2)cc1`, the AC50 under setting [1] is 23.1 µM [falling, partial curve, poor fit]. In the case of `O=C(CSc1nc2c(cnn2-c2ccccc2)c(=O)[nH]1)NC1CCS(=O)(=O)C1` (centres undefined), the cell number change was -19.4%. Moreover, the AC50 under setting [2] is 3.26 µM [falling, single point]. In addition, the concentration at half-maximal activity (AC50) under setting [1] was 5.17 µM [falling, full curve].

On to `COc1ccc(C(=O)C2CCN(CC(=O)Nc3ccccc3F)CC2)cc1`, for which the cell number change was 1.28%. In addition, the AC50 under setting [1] is 29.1 µM [rising, single point]. Turning to `Cn1c(=O)c2sccc2n(Cc2ccc(Br)cc2)c1=O`, the cell number change worked out at 25.6%. Take `N#Cc1cccc(NC(=O)CNc2cc(S(=O)(=O)N3CCOCC3)ccc2N2CCCC2)c1`: the cell number change is -30.2%. Further, under setting [2], the AC50 is 23.1 µM [falling, single point].

As to `N#Cc1cccn1-c1nccc(-c2cccs2)n1`, the cell number change worked out at 7.52%.

`O=C(CSc1nc2ccccc2c(=O)n1CC1CCCO1)NCc1ccc2c(c1)OCO2` (centres undefined): the AC50 under setting [1] is 6.51 µM [rising, single point].

Take `CCOc1ccc(N(Cc2cc3cc(OC)ccc3[nH]c2=O)S(C)(=O)=O)cc1`: the cell number change was 4.46%. Moreover, the AC50 under setting [2] was 6.51 µM [rising, single point]. For the same compound, under setting [1], the AC50 was 6.51 µM [rising, partial curve, poor fit]. Consider `CC(C)(C)NC(=O)c1ccccc1-c1nc(-c2ccccc2Cl)no1`, for which the cell number change was 82.3%. The AC50 under setting [2] is 2.59 µM [rising, full curve]. The AC50 under setting [1] is 2.59 µM [rising, partial curve]. In the case of `O=C(C1CCCN(c2ncnc3c2nc2n3CCCCC2)C1)N1CCN(c2ccc(F)cc2)CC1` (centres undefined), the cell number change is 9.54%. On to `O=C(c1cccnc1)N1CCc2ccccc21`, for which the cell number change worked out at 105%. In addition, the AC50 under setting [2] was 13 µM [rising, partial curve]. Further, the AC50 under setting [1] was 11.6 µM [rising, partial curve]. On to `CNC(=O)c1cc2c(-c3ccccc3)nn(C)c2s1`, for which the cell number change was -16.9%. Moreover, the AC50 under setting [1] was 23.1 µM [falling, single point].

For the compound `Cc1ccc(C(=O)NCCCNC(=O)c2ccccn2)cc1`, the cell number change was determined as 19.2%. The same measure, in the same setting: the value for `COc1cccc(C2CC(c3ccc(Cl)cc3)n3nc(N)nc3N2)c1` (centres undefined) was 9.61%. Consider `CCC(=O)N1CCN=C1SCc1cc(C)ccc1C`, for which the cell number change was -27.7%. The AC50 under setting [1] was 6.51 µM [rising, single point]. As to `NC(=O)N1N=C2/C(=C/c3ccccc3)CCCC2C1c1ccccc1` (centres undefined), the cell number change turned out to be 6.85%. Further, the AC50 under setting [1] was 1.84 µM [rising, partial curve, poor fit]. Regarding `OC1CNCc2cc3c(cc21)OCCO3` (centres undefined), the cell number change is -7.75%. Further, the AC50 under setting [1] was 4.11 µM [falling, full curve]. `C/C(N)=C(/C#N)C(=O)COC(=O)CSc1ccccc1`: the cell number change was -8.32%. For the same compound, the AC50 under setting [2] is 0.82 µM [falling, full curve, poor fit]. For the same compound, the AC50 under setting [1] was 20.6 µM [falling, partial curve, poor fit]. As to `CC1CCCC(NC(=O)COC(=O)Cc2cn3ccsc3n2)C1C` (centres undefined), the cell number change was -11.9%. In addition, under setting [2], the AC50 is 1.3 µM [falling, full curve, poor fit]. For the same compound, the AC50 under setting [1] is 5.8 µM [falling, single point].

Regarding `Nc1nnc(-c2ccc(Cl)cc2)s1`, the cell number change is 28.3%. For the same compound, the AC50 under setting [2] is 0.411 µM [rising, full curve]. The AC50 under setting [1] was 2.59 µM [rising, partial curve]. In the case of `O=C1c2ccccc2C(=O)N1CCCCSc1nnc2c(Cl)cc(Cl)cn12`, the AC50 is, setting by setting: under setting [2], 4.11 µM [rising, partial curve]; under setting [1], 2.31 µM [rising, partial curve]. `CCC(C(=O)N1CCN(Cc2ccc3c(c2)OCO3)CC1)n1c(=O)[nH]c2ccccc2c1=O` (centres undefined): the cell number change was -18.4%. Besides, the AC50 under setting [1] was 29.1 µM [falling, single point]. For the compound `CCOc1ccccc1Nc1nnc(SCC(=O)NC(Cc2c[nH]c3ccccc23)C(=O)O)s1` (centres undefined), the cell number change is 20.1%. Turning to `O=C(Nc1cccc(C(F)(F)F)c1)c1cccc(NS(=O)(=O)c2ccc(Br)c(C(=O)O)c2)c1`, the cell number change was 52.9%. For the same compound, the AC50 under setting [2] was 20.6 µM [rising, single point]. Also, under setting [1], the AC50 is 29.1 µM [rising, single point].
